2 substances from PMC11526040 can be followed below.

By UniProt entry, the sequences of proteins in these tests, tags left out.
UniProt O60016: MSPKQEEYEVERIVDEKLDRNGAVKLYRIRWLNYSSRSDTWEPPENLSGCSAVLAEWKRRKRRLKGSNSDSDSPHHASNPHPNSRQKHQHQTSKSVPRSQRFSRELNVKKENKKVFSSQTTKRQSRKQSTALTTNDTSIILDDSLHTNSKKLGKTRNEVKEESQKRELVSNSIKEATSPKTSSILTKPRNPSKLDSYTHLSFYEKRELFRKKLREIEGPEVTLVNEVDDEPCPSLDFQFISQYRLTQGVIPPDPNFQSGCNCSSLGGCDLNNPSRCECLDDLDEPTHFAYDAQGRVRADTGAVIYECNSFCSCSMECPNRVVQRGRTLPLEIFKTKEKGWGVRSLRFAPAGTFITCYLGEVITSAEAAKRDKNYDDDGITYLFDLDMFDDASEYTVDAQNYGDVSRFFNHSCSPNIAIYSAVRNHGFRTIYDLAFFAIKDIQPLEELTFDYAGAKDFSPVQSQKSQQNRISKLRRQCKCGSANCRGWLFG
UniProt P46595: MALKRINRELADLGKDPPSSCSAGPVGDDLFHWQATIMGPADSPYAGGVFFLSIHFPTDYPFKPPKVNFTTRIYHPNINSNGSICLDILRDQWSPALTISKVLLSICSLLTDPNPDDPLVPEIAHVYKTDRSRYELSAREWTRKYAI

These are yes or no findings as the source states them, for the method shown. For some of these results: In cells and extracts the contact can be indirect. Some results given as binding are weak or reduced against the parent protein; the word gives no strength. For some of these results: Where a sequence is shown, tags or fusion partners need not be part of it.

In experiment [1] the target is recombinant Clr4 (6xHis-1xFlag-Clr4 and 6xHis-1xMyc-Clr4) (S. pombe) (UniProt O60016). The experiment can be described thus: pull-down; Flag antibody on Protein A/G Sepharose; recombinant Flag-Clr4 and Myc-Clr4, 500 nM each, with 0, 50, 100 and 200 nM centromeric ncRNA, in lysis buffer (40 mM Tris-HCl pH 7.5, 1 mM EDTA, 10% glycerol, 0.1% NP-40, 250 mM NaCl), 4 °C, 3 h; Western blot with anti-Myc and anti-Flag; both purified. In general terms: A western blot detects proteins with antibodies after separation by electrophoresis.

The target in experiment [2] is T1, Raf2-Flag (S. pombe) (UniProt O74560).
T1 sequence: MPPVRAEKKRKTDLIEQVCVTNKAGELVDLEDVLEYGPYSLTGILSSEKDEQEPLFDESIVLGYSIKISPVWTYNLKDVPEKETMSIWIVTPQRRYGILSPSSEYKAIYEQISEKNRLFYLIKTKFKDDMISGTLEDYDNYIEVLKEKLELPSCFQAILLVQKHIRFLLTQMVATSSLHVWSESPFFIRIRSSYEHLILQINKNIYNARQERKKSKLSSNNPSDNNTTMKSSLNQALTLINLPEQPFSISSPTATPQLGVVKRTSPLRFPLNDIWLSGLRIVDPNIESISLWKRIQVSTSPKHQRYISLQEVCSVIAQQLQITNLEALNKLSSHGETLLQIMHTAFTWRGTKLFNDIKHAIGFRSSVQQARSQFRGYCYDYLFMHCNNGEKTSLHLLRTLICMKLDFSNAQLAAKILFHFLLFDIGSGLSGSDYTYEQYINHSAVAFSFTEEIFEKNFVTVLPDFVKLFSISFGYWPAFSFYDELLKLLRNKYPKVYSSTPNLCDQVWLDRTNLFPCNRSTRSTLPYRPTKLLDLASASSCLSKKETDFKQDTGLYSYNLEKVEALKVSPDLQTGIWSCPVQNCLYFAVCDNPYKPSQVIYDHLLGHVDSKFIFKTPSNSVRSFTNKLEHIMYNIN
As to the kind of experiment: co-IP; S. pombe whole-cell extracts in lysis buffer (40 mM Tris-HCl pH 7.5, 1 mM EDTA, 10% glycerol, 0.1% NP-40, 300 mM NaCl); GFP antibody on Protein A/G Sepharose (Cul4-GFP) or Anti-Flag M2 Affinity Gel (Flag-tagged proteins), overnight at 4 °C; Ubc4 detected with anti-mUBE2D3; for Cul4 and Raf2 also with nuclease treatment.

The target of experiment [3] is T2, Flag-Raf1 (S. pombe) (UniProt O74910).
T2 sequence: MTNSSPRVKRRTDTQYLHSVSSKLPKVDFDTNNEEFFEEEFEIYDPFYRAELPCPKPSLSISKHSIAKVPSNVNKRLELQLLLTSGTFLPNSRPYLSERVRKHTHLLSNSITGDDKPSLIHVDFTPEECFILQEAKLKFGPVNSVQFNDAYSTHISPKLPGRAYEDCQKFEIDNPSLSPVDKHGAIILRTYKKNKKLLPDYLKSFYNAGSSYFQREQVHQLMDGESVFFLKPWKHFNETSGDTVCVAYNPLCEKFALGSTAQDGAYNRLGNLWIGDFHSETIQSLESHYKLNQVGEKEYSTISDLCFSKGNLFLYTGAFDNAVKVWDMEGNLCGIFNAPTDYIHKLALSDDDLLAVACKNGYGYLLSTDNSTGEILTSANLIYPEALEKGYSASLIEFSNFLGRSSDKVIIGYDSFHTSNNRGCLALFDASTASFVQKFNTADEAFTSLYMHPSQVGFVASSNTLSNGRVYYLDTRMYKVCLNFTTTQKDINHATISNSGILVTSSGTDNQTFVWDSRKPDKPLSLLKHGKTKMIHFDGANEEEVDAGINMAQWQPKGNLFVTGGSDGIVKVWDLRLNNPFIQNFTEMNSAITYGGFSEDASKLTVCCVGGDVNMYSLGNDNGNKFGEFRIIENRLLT
The description is as above.

The target in experiment [4] is T3, Cul4-GFP (S. pombe) (UniProt O14122).
T3 sequence: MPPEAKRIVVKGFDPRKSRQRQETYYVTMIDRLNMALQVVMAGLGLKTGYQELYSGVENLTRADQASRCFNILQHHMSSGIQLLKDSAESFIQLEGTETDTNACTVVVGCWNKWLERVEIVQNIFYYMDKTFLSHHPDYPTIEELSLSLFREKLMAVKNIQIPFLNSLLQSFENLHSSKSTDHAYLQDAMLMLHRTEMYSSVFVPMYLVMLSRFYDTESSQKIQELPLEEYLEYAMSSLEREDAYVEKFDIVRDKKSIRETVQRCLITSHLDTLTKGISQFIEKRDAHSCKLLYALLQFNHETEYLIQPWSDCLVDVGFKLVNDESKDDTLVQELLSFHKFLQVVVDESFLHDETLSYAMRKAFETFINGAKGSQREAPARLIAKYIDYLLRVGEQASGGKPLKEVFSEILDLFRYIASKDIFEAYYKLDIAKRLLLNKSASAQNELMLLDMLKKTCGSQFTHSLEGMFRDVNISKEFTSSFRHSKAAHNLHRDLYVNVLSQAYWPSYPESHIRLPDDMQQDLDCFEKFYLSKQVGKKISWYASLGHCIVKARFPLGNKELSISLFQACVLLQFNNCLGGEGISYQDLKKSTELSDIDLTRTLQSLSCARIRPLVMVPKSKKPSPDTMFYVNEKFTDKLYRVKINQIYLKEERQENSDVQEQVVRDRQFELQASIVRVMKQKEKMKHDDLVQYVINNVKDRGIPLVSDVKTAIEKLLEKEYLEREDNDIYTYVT
The description is as above.

In the case of “recombinant Clr4 (6xHis-1xFlag-Clr4 and 6xHis-1xMyc-Clr4) (from UniProt O60016 1-490) (enzyme)”, in experiment [1], the binding result is “binds weakly”.
“E2 ubiquitin conjugating enzyme Ubc4 (from UniProt P46595 1-147)”: the binding result in experiment [2], in experiment [3] and in experiment [4] was “binds” in each case.
